The text below walks through data of publication PMC4572079.

The target in data set [1] is T1, hnRNP F (UniProt Q794E4).
T1 sequence (looked up, limits assumed): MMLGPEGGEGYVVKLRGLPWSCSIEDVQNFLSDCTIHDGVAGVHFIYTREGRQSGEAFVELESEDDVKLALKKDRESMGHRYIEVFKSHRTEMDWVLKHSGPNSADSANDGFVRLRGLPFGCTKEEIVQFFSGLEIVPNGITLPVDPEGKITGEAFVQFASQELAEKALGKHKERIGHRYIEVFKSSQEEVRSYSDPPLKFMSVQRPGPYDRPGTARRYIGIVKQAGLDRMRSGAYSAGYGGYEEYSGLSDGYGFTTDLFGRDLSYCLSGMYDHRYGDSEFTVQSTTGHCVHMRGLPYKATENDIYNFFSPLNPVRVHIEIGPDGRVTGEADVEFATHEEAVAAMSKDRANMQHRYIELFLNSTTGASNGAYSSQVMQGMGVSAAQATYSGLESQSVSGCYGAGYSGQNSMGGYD
In words: competition EMSA. As to conditions: excess unlabelled competitor vs N1 probe; LightShift Chemiluminescent EMSA kit, RPTC nuclear proteins; antibody 30 min on ice before probe; salt and pH not given; protein in an extract. For orientation: Mobility shift assays separate free from complexed probe on a gel.

In data set [2] the target is T1, hnRNP F. In words: EMSA supershift. As to conditions: anti-hnRNP F; LightShift Chemiluminescent EMSA kit, RPTC nuclear proteins; antibody 30 min on ice before probe; salt and pH not given; protein in an extract; label: biotin (probe).

The exact form of at least one protein or probe is not confirmed. Results from cells or extracts need not show a direct contact. For some assays here: No signal at the amounts used counts as a negative. For some assays here: At least one verdict was read from the data and is not stated in words by the source. Tags and fusion partners may be left off the protein sequences shown.

Take “AAGGAAGAGAGAAAAGAGGATGGATCGC (double strand) [Hnrnpf-RE (M4)]”: the binding result in data set [1] was “no binding”.

As for “AGAAAGGGGAAAGGAAGAGG (double strand) [Hnrnpf-RE (M2)]”, in data set [1], the binding result is “no binding”.

For “AGAAAGGAAAGAGGAAGAGG (double strand) [Hnrnpf-RE (M1)]”, in data set [1], the binding result is recorded as “no binding”.

On to “AGAAAGGGGAGAAAAAGAGG (double strand) [Hnrnpf-RE (M3)]”, for which the binding result in data set [1] was “no binding”.

“AGAAAGGGGAGAGGAAGAGG (double strand) [Hnrnpf-RE (WT)]”: the binding result in data set [2] is given as “binds”.
